Measured values: publication PMC9826262, “Discovery of Benzo[d]imidazole‐6‐sulfonamides as Bromodomain and Extra‐Terminal Domain (BET) Inhibitors with Selectivity for the First Bromodomain” (Chemmedchem, 2022)

Assay: in vitro
Settings: PAMPA, pH 7.4
Procedure: Membrane permeability was estimated by the well‐validated parallel artificial membrane permeability assay (PAMPA) technique.[17, 26]
Parallel Artificial Membrane Permeability Assay (PAMPA). Donor solution (0.2 mM) was prepared by diluting 20 mM dimethyl sulfoxide (DMSO) compound stock solution using phosphate buffer (pH 7.4, 0.01 M). Filters were coated with 5 μL of a 1 % (w/v) dodecane solution of L‐α‐phosphatidylcholine. Donor solution (150 μL) was added to each well of the filter plate. To each well of the acceptor plate, 300 μL of solution (5 % DMSO in phosphate buffer) was added. […] The sandwich was incubated for 24 h at room temperature under gentle shaking. After the incubation time, the sandwich plates were separated and 250 μL of the acceptor plate was transferred to a UV quartz microtiter plate and measured by UV spectroscopy, using a Multiskan GO microplate spectrophotometer (Thermo Fisher Scientific) at 250–500 nm at a step of 5 nm. Reference solutions (250 μL) were prepared diluting the sample stock solutions to the same concentration as that with no membrane barrier.
In this equation, VR is the volume of the acceptor compartment (0.3 cm^3), VD is the donor volume (0.15 cm^3), A is the accessible filter area (0.24 cm^2), and t is the incubation time in seconds.

Work on `NS(=O)(=O)c1cc(C(=O)O)c(NCc2ccco2)cc1Cl` [furosemide] yielded a Papp at 24 h, 0.2 mM of 0.0101 ×10⁻⁶ cm/s.
